{"source": "patent US20060003410A1", "about": "“Prostaglandin reductase” (priority 2004, published 2006)", "system": "3T3-L1 cells", "assay": "Protein expression of adipogenesis-specific, PPAR-gamma target genes in 3T3-L1 cells", "assay_type": "cell-based, mouse", "description": "Also examined was the ability of 15-keto PGE2 to induce protein expression of adipogenesis-specific, PPAR-gamma target genes, i.e., IRS-1 and -2.", "note": "At least one compound was matched to its structure with a doubt left."}
{"smiles": "CN(CCOc1ccc(CC2SC(=O)NC2=O)cc1)c1ccccn1", "note": "(stereo not drawn) [BRL49653]", "values": [{"measurement": "IRS-1 protein expression", "setting": "3T3-L1 cells", "result": "did not increase"}, {"measurement": "expression of aP2, an adipocyte-specific marker", "setting": "even in the absence of MIX", "result": "strongly induced"}, {"measurement": "IRS-2 expression", "setting": "in the presence of insulin and dexamethasone", "result": "dramatically increased"}]}
